Source: the supplement of paper PMC10689618
The other results are listed elsewhere or left out. Repeats are few or missing, and single values can be far off.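 Labelled rat cortical synaptosomes were engulfed by primary human fetal astrocytes. Engulfment equaled a red/green ratio, corrected for calcein live-cell signal and normalized to the plate median. Compounds were toxic when calcein dropped over 30%, and reduced phagocytosis when below 70% of the median above 5 µM.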

What was measured:
[1] = test system: Human fetal astrocytes; test: loss of total cells relative to no-compound high-control median (toxicity); higher = more toxic (fewer cells); conditions: 24 h
[2] = test system: Human fetal astrocytes; test: synaptosome phagocytosis (pHrodo/calcein intensity ratio) relative to plate median of data wells; higher = more phagocytosis; conditions: 24 h

Structure (SMILES) | loss of total cells ([1]; 1.39 µM) | loss of total cells ([1]; 2.78 µM) | loss of total cells ([1]; 5.56 µM) | loss of total cells ([1]; 11.11 µM) | loss of total cells ([1]; 22.22 µM) | synaptosome phagocytosis ([2]; 1.39 µM) | synaptosome phagocytosis ([2]; 2.78 µM) | synaptosome phagocytosis ([2]; 5.56 µM) | synaptosome phagocytosis ([2]; 11.11 µM) | synaptosome phagocytosis ([2]; 22.22 µM)
N#Cc1ccc2c(c1)N(CCCN1CCC(O)CC1)c1ccccc1S2 | 6.1% | 19.9% | 0% | 6.3% | 14.4% | 115% | 100% | 56.5% | 112% | 124%
CC(=O)OCC(=O)[C@@]1(O)CC[C@H]2[C@@H]3CCC4=CC(=O)C=C[C@]4(C)[C@H]3[C@@H](O)C[C@@]21C | -15.1% | -30.8% | -18.1% | -22.2% | 30.7% | 82.9% | 94% | 84% | 124% | 123%
CCCCC1=NC2(CCCC2)C(=O)N1Cc1ccc(-c2ccccc2-c2nnn[nH]2)cc1 | 21% | -33.3% | -3.7% | -7.5% | 5.3% | 169% | 86.5% | 93% | 86.8% | 105%
CN1CCC(=C2c3ccccc3Sc3ccccc32)CC1 | 19.9% | 22% | 13% | -7.9% | 28% | 97.3% | 112% | 104% | 130% | 144%
N=C(N)c1ccc(OCCCCCOc2ccc(C(=N)N)cc2)cc1 | 28.5% | 24.9% | 15.9% | 1.3% | 20.5% | 141% | 121% | 78.9% | 75.3% | 98.5%
CC(c1cc2ccccc2s1)N(O)C(N)=O (stereo not given) | 1.1% | 4.7% | 33.6% | 29.7% | -0.4% | 87.8% | 74.4% | 123% | 107% | 90.5%
NCCC(=O)N[C@@H](Cc1c[nH]cn1)C(=O)O | -8.2% | 1.1% | 8.8% | 18.9% | 3% | 85.6% | 132% | 132% | 138% | 131%
Cc1ccsc1/C=C/C1=NCCCN1C | -41.9% | 22.2% | -1.2% | 44.9% | -2.2% | 66.6% | 158% | 69.6% | 125% | 66.9%
CN/C(=N\CCSCc1nc[nH]c1C)NC#N | 15.7% | -35.6% | -20.2% | 8.9% | -7% | 113% | 103% | 97.1% | 120% | 91%
NS(=O)(=O)c1cc2c(cc1Cl)NC(C(Cl)Cl)NS2(=O)=O (stereo not given) | -3.9% | -2.4% | -14.6% | -7.2% | 20.4% | 124% | 112% | 144% | 102% | 122%
CCC[C@@H]1C[C@@H](C(=O)N[C@@H]([C@H]2O[C@H](SC)[C@H](O)[C@@H](O)[C@H]2O)[C@@H](C)O)N(C)C1 | -13.4% | -11.9% | -24.4% | -3.7% | -26.4% | 88.2% | 94.8% | 72.8% | 89.3% | 95.3%
CN(C)[C@@H]1C(=O)C(C(=O)NCN2CCCC2)=C(O)[C@@]2(O)C(=O)C3=C(O)c4c(O)cccc4[C@@](C)(O)[C@H]3C[C@@H]12 | -29% | 29.4% | 11.8% | 38.4% | 34.6% | 108% | 130% | 122% | 121% | 144%
O=C(CCc1ccc(O)cc1)c1c(O)cc(O)cc1O[C@@H]1OC(CO)[C@@H](O)[C@@H](O)C1O (stereo not given in full) | 20.6% | 18.4% | 16.7% | 1.3% | 22% | 89% | 125% | 103% | 96.2% | 87.2%
N=C1C=CC(=C(c2ccc(N)cc2)c2ccc(N)cc2)C=C1 | -4.8% | 37.3% | 3.1% | 48.9% | 52% | 60.6% | 81.6% | 65.1% | 147% | 135%
COc1cc(OC)c2c(c1Cl)O[C@@]1(C(=O)CC(=O)C[C@H]1C)C2=O | -6.9% | 4.7% | -12.2% | -9.7% | -16.7% | 113% | 106% | 110% | 87.4% | 112%
CC1NC(=O)NC1=O (stereo not given) | 23.6% | -8.6% | 38.9% | 45.8% | -3.3% | 93.5% | 74.7% | 142% | 141% | 81.6%
CO/N=C(\C(=O)N[C@@H]1C(=O)N2C(C(=O)O)=C(COC(N)=O)CS[C@H]12)c1ccco1 | 18.3% | -11.9% | 5.7% | 2.3% | 18.1% | 78.7% | 121% | 123% | 116% | 109%
Nc1ccc(C(=O)NCC(=O)O)cc1 | -19.4% | -25.4% | 8.7% | 8.2% | 7.2% | 134% | 117% | 132% | 117% | 107%
CC(C(=O)O)c1ccc(N2Cc3ccccc3C2=O)cc1 (stereo not given) | 5.6% | -11.2% | -7% | 3.7% | 18.5% | 124% | 122% | 123% | 109% | 121%
Oc1ccc(Cl)c2cccnc12 | 6.2% | 17.3% | 2.1% | 37.8% | 49.5% | 62.4% | 80.9% | 72.8% | 32.7% | 54.9%
C=CC1=C(C(=O)O)N2C(=O)[C@@H](NC(=O)/C(=N\O)c3csc(N)n3)[C@H]2SC1 | -30.6% | -14.3% | 18% | 44.9% | 9.7% | 78% | 135% | 82.5% | 147% | 114%

Filtered by structure: the compounds so far with a COOH group.
Structure (SMILES) | loss of total cells ([1]; 1.39 µM) | loss of total cells ([1]; 2.78 µM) | loss of total cells ([1]; 5.56 µM) | loss of total cells ([1]; 11.11 µM) | loss of total cells ([1]; 22.22 µM) | synaptosome phagocytosis ([2]; 1.39 µM) | synaptosome phagocytosis ([2]; 2.78 µM) | synaptosome phagocytosis ([2]; 5.56 µM) | synaptosome phagocytosis ([2]; 11.11 µM) | synaptosome phagocytosis ([2]; 22.22 µM)
NCCC(=O)N[C@@H](Cc1c[nH]cn1)C(=O)O | -8.2% | 1.1% | 8.8% | 18.9% | 3% | 85.6% | 132% | 132% | 138% | 131%
CO/N=C(\C(=O)N[C@@H]1C(=O)N2C(C(=O)O)=C(COC(N)=O)CS[C@H]12)c1ccco1 | 18.3% | -11.9% | 5.7% | 2.3% | 18.1% | 78.7% | 121% | 123% | 116% | 109%
Nc1ccc(C(=O)NCC(=O)O)cc1 | -19.4% | -25.4% | 8.7% | 8.2% | 7.2% | 134% | 117% | 132% | 117% | 107%
CC(C(=O)O)c1ccc(N2Cc3ccccc3C2=O)cc1 (stereo not given) | 5.6% | -11.2% | -7% | 3.7% | 18.5% | 124% | 122% | 123% | 109% | 121%
C=CC1=C(C(=O)O)N2C(=O)[C@@H](NC(=O)/C(=N\O)c3csc(N)n3)[C@H]2SC1 | -30.6% | -14.3% | 18% | 44.9% | 9.7% | 78% | 135% | 82.5% | 147% | 114%
